In patent publication US6258583:

Tested on: Hpy188I restriction endonuclease (Helicobacter pylori J188)
Experiment: enzyme reaction in vitro
Conditions: cleaves between N and G on both strands giving one base 3' extension; 37 C, 30 min, Mg2+; purified native protein; label: 33P primer extension product; only the motif is given

## TCGGA (double strand) [M13mp18 Hpy188I site at position 1353 (N is G)]
  activity on this sequence: active

For at least one entry, the source does not settle the construct or the ends of the probe.
